Data from US20120282296A1, “METHODS FOR IMPROVING THE DESIGN, BIOAVAILABILITY, AND EFFICACY OF DIRECTED SEQUENCE POLYMER COMPOSITIONS VIA SERUM PROTEIN-BASED DETECTION OF DIRECTED SEQUENCE POLYMER COMPOSITIONS” (ARES TRADING SA, priority 2009, published 2012).

System: serum proteins
Test: Identification of serum proteins bound to PI-2301 or Cop-1 by LC-MS/MS
Type: binding, normal mouse serum or normal human serum

Question: plovamer [PI-2301] was tested. Which “serum proteins found bound (LC-MS/MS identification)” value did it give?
Answer: several lipoproteins from the HDL and LDL complexes
